Assay [1] has as its target T1, AtPSKR1-GFP (PHYTOSULFOKINE RECEPTOR 1), stably expressed in Arabidopsis (Arabidopsis) (UniProt Q9ZVR7).
T1 sequence: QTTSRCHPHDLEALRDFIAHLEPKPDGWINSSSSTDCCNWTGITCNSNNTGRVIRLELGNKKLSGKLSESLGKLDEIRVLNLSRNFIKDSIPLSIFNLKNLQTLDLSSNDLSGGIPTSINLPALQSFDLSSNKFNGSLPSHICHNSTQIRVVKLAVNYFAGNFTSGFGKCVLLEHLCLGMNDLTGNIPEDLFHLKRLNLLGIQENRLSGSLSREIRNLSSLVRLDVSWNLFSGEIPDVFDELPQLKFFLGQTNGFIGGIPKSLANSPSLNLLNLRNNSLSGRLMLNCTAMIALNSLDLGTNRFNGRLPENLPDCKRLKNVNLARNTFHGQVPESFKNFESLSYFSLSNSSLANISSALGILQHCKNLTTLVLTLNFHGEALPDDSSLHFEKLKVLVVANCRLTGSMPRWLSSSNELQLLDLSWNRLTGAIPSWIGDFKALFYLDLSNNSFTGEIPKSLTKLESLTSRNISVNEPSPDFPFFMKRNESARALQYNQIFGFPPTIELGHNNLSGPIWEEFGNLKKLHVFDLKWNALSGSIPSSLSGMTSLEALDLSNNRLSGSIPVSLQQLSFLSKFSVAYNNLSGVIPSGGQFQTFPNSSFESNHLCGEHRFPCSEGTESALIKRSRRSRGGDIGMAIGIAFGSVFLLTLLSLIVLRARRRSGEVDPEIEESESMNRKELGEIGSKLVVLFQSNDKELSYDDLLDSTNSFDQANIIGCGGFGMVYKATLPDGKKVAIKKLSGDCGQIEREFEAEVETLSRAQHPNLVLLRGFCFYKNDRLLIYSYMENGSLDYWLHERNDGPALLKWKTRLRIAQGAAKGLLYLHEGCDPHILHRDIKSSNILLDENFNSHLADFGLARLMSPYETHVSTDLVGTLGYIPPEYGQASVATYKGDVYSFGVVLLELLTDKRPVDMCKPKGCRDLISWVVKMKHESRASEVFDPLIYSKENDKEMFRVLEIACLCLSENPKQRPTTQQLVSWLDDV
As to the kind of experiment: co-IP; Arabidopsis plants stably expressing p35S::AtPSKR1-GFP, infiltrated with recombinant SCP8 (1 µM, 5-30 min) or PSK (1 µM, positive control); RIPA buffer; GFP-trap agarose beads; blots with anti-GFP and anti-BAK1.

Assay [2] concerns the target T2, AtPSKR1-GFP, transiently expressed in N. benthamiana (Arabidopsis) (UniProt Q9ZVR7).
T2 sequence: T1 sequence
As to the kind of experiment: co-IP; N. benthamiana leaves transiently co-expressing p35S::AtPSKR1-GFP and p35S::AtBAK1-myc, treated with SCP8 (Supplementary Fig. 8).

These are yes or no findings as the source states them, for the method shown. In cells and extracts the contact can be indirect. Some binding calls cover weakened binding; strength is not graded here. Where a sequence is shown, tags or fusion partners need not be part of it.

B1: AtBAK1, endogenous in Arabidopsis (receptor, UniProt Q94F62 26-615)
chain: NAEGDALSALKNSLADPNKVLQSWDATLVTPCTWFHVTCNSDNSVTRVDLGNANLSGQLVMQLGQLPNLQYLELYSNNITGTIPEQLGNLTELVSLDLYLNNLSGPIPSTLGRLKKLRFLRLNNNSLSGEIPRSLTAVLTLQVLDLSNNPLTGDIPVNGSFSLFTPISFANTKLTPLPASPPPPISPTPPSPAGSNRITGAIAGGVAAGAALLFAVPAIALAWWRRKKPQDHFFDVPAEEDPEVHLGQLKRFSLRELQVASDNFSNKNILGRGGFGKVYKGRLADGTLVAVKRLKEERTQGGELQFQTEVEMISMAVHRNLLRLRGFCMTPTERLLVYPYMANGSVASCLRERPESQPPLDWPKRQRIALGSARGLAYLHDHCDPKIIHRDVKAANILLDEEFEAVVGDFGLAKLMDYKDTHVTTAVRGTIGHIAPEYLSTGKSSEKTDVFGYGVMLLELITGQRAFDLARLANDDDVMLLDWVKGLLKEKKLEALVDVDLQGNYKDEEVEQLIQVALLCTQSSPMERPKMSEVVRMLEGDGLAERWEEWQKEEMFRQDFNYPTHHPAVSGWIIGDSTSQIENEYPSGPR
B1: the binding entry in assay [1] is “binds”.

B2: AtBAK1-myc, transiently expressed in N. benthamiana (receptor, UniProt Q94F62 26-615)
chain: B1 chain
For B2, the binding entry in assay [2] is listed as “binds”.
